From PMC11983310
Results are given in words; binding and its absence hold for the method and conditions named. Binding seen in cells or lysates may run through a third protein. Some entries that bind do so weakly or less than the wild type. Where a sequence is shown, tags or fusion partners need not be part of it.

Sequences of proteins named here, by UniProt entry; tags and fusion partners are left off.
UniProt P35222: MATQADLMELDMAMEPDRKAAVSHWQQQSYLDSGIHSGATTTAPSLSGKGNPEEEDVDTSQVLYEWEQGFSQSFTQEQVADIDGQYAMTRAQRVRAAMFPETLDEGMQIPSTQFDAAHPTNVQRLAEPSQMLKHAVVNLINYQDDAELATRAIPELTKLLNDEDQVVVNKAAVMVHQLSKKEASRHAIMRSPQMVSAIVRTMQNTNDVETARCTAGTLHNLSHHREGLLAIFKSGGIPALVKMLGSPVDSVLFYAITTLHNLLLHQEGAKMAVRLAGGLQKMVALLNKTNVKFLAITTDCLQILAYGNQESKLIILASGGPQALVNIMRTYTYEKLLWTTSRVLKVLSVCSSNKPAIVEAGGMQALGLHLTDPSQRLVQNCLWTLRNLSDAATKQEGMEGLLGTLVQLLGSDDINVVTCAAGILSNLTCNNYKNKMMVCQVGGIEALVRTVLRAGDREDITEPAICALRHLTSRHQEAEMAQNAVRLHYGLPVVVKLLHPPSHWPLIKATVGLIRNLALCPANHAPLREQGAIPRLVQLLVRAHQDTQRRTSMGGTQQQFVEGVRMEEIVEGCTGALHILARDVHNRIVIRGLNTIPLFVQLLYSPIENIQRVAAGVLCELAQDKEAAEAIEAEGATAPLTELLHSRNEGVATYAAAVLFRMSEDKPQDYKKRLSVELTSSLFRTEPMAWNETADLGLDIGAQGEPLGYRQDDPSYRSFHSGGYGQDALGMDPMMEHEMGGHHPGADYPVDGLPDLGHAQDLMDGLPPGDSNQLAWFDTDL

Target: T1, F-box and WD-repeat-containing protein 2 (FBXW2), HA-tagged (UniProt Q9UKT8)
T1 sequence: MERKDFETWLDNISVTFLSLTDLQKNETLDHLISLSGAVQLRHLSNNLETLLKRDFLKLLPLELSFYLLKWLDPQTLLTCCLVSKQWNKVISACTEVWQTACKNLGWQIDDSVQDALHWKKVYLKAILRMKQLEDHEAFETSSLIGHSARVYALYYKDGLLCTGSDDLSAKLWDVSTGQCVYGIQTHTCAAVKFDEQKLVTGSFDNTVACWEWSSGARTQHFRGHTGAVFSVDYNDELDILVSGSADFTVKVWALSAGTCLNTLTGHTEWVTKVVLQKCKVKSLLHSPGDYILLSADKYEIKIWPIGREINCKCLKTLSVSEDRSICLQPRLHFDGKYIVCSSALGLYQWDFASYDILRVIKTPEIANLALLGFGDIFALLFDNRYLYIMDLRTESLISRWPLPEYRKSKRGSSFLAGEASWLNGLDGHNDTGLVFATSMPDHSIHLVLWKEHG
Experiment: co-IP; transfected AGS cells lysed; anti-HA or anti-FLAG antibody used to pull down the complex; Western blot with anti-β-catenin or anti-FLAG antibody

binding: binds
Substance: β-catenin (from UniProt P35222 1-781)
